The campaign covered roughly 2,800 compounds. Fewer than 10 were called active. About 7% were inconclusive and are not listed. Calls come from the whole dose curve; as a rule, active = well fitted inhibition curve with a large enough effect; inconclusive = small, poorly fitted or top-dose-only effect; inactive = no such curve, though single readings can be large or run the other way. The list shows a part of the results.

Sequences of proteins named here, by UniProt entry; tags and fusion partners are left off. A change or cut given only in a name is not applied to a line headed by its entry.
UniProt C7C422: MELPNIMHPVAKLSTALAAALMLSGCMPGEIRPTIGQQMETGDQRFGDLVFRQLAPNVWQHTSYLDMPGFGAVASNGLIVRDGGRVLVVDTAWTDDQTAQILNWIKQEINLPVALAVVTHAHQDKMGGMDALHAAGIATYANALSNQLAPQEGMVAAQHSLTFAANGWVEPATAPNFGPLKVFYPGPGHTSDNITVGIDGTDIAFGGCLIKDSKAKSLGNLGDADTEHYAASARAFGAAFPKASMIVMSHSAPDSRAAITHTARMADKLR

This assay addresses Metallo-beta-lactamase type 2 (Klebsiella pneumoniae) (UniProt C7C422). The assay is described as follows: qHTS to identify inhibitors of the New Delhi Metallo-beta-lactamase (NDM): Nitrocefin screen against the machine-based learning selections. Note: % of control where 0% means no effect. The following applies: NDM-1 enzyme, nitrocefin hydrolysis, absorbance 485 nm; activity, negative = inhibition: at the top concentration. The method in brief: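 NDM-1 (2 nM final) in 50 mM HEPES pH 7.0, 1 uM Zn2SO4, 0.01% Tween20 was preincubated with compounds for >30 min. Nitrocefin (16.7 uM final) was read at 485 nm after 15 min, and meropenem (50 uM final) at 300 nm after 30 min.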
For orientation: In qHTS, concentration-response curves come from the screen itself.
Consider `O=C1Nc2ccc(-c3cccs3)cc2C(=O)N2CC[C@H](NS(=O)(=O)c3ccc(Cl)cc3)C[C@@H]12`, for which the “activity, negative = inhibition” value was inactive: 0.469%.
Consider `O=c1cc(-c2cccnc2)oc2c(-c3ccccc3O)nccc12`, for which the “activity, negative = inhibition” value was inactive: -6.45% [at 57.5 µM].
Turning to `O=C(NCc1ccccc1)O[C@@H]1CO[C@H]2[C@@H]1OC[C@@H]2Nc1nccc(-c2ccc3c(c2)OCO3)n1`, the “activity, negative = inhibition” value is inactive: -3.73%.
`CCc1noc(-c2cn(C3CCN(C(=O)c4ccc(C)c(C)c4)CC3)nn2)n1`: the “activity, negative = inhibition” value was inactive: -2.66%.
On to `O=C(c1cccc(-n2cnnc2)c1)N1CCCCCC1c1cccc(F)c1` (configuration not stated), for which the “activity, negative = inhibition” value is inactive: 2.38%.
Take `COc1ccccc1CN1CC(c2noc(-c3ccc(C)cc3C)n2)CC1=O` (configuration not stated): the “activity, negative = inhibition” value is inactive: -2.35%.
Consider `N#Cc1cccc(C2CCN(C(=O)C3CCN(C(=O)C4CC4)CC3)CC2)c1`, for which the “activity, negative = inhibition” value was inactive: -1.31%.
For the compound `CC(C)(CNc1ccc(-c2nc(C3CC3)no2)cn1)N1CCOCC1`, the “activity, negative = inhibition” value was inactive: 3.15%.
Regarding `Cc1cccc(Cl)c1NC(=O)N1CCC2(CC1)C(C(=O)O)CC(=O)N2C` (configuration not stated), the “activity, negative = inhibition” value was inactive: 6.76%.
For the compound `COc1cccc(S(=O)(=O)N2CCC(n3cnnc3-c3ccccc3)CC2)c1`, the “activity, negative = inhibition” value was inactive: -12.5%.
Turning to `CN(Cc1cc(C[C@H]2CNCC[C@H]2CC(=O)N2CCN(c3ccccc3)CC2)no1)c1ccccc1`, the “activity, negative = inhibition” value was inactive: -1.55%.
As for `Cc1ccc2nc(C3CCN(Cc4cccc(-c5ccsc5)c4)CC3)[nH]c(=O)c2c1`, the “activity, negative = inhibition” value is inactive: 5.38%.
In the case of `COc1ccc(-c2cc(N3CCCN(C(=O)c4cnccn4)CC3)n[nH]2)cc1`, the “activity, negative = inhibition” value was inactive: 5.78%.
Under `CSCC(=O)N[C@H]1CCN2C(=O)c3ccccc3NC(=O)[C@H]12` stands inactive: -1.04% [at 57.5 µM].
Consider `Cc1nc(N(C)C)ncc1C(=O)NC(C(=O)O)c1c(C)n[nH]c1C` (configuration not stated), for which the “activity, negative = inhibition” value is inactive: -3.95%.
Consider `Cc1ccc(CNC(=O)CN2CC3CC(C2)[C@H]2CCCC(=O)N2C3)cc1` (some centres not stated), for which the “activity, negative = inhibition” value was inactive: -1.63%.
Turning to `Fc1ccc(CN2CC[C@H](c3nc4ccccc4o3)C2)cc1F`, the “activity, negative = inhibition” value was inactive: -0.456% [at 57.5 µM].
For `Cc1ccccc1Nc1n[nH]c(C(O)c2ccc3c(c2)CCO3)n1` (configuration not stated) the value was inactive: 1.41% [at 57.5 µM]; for `COc1ccc(-c2noc([C@@H]3Cc4nc[nH]c4CN3C(=O)Nc3ccc(C)cc3)n2)cc1`, inactive: -10.4% [at 57.5 µM]; for `CCCNc1ncc(CN2CCCC(c3ccc(C(=O)O)cc3)C2)cn1` (configuration not stated), inactive: -0.546%.
Under `Cn1cc(CN[C@H]2C[C@H]3C(=O)NC[C@@H](CCC(=O)N4CCCCC4)N3C2)c2ccccc21` stands inactive: 1.02%; under `O[C@@H]1C[C@@H](c2nc(-c3ccccn3)no2)N(Cc2ccccc2)C1`, inactive: -5.56% [at 57.5 µM].
With `Cc1cccc(OCC2CCCN(C(=O)c3sc(C(C)C)nc3C)C2)c1` (configuration not stated), the “activity, negative = inhibition” value was inactive: -8.31%.
On to `CN(C)Cc1nnc(C2CCN(C(=O)Nc3cccc(C#N)c3)CC2)n1C`, for which the “activity, negative = inhibition” value was inactive: -6.13%.
Under `Cc1noc(C)c1-c1cnc2[nH]cc(CC(=O)NCc3cccnc3)c2c1` stands inactive: -1.69% [at 57.5 µM]; under `CN1C(=O)COC[C@@H]1[C@H](O)c1ccc(NC(=O)Nc2ccccc2)cc1`, inactive: -8.66% [at 57.5 µM].
As to `Cc1cc(-c2cccc(CCOc3cnc4c(ccn4CC(=O)O)c3)c2)ccn1`, the “activity, negative = inhibition” value is inactive: 3.49% [at 57.5 µM].
Regarding `O=C1[C@@H]2C[C@@H](CN2Cc2ccccc2)Oc2ccccc2N1Cc1ccccc1`, the “activity, negative = inhibition” value was inactive: -0.2% [at 57.5 µM].
As to `O=C(CN1C(=O)C2(CCNCC2)Nc2ccccc21)NC1CCCCCC1`, the “activity, negative = inhibition” value is inactive: -0.445%.
On to `O=C(CCC[C@H]1NC[C@@H]2C[C@H]1CN(Cc1ccccc1)C2)NCCc1cccnc1`, for which the “activity, negative = inhibition” value is inactive: 13.8%.
Under `COC[C@H]1CCCN1C(=O)C[C@@H]1O[C@H](CNS(C)(=O)=O)[C@@H](O)[C@H]1O` stands inactive: -7.39% [at 57.5 µM].
With `CC(C)c1ccc(NC2=N[C@H]3[C@@H](O)[C@H](O)C[C@H](C(=O)NC4CCCC4)[C@H]3S2)cc1`, the “activity, negative = inhibition” value was inactive: 0.685% [at 57.5 µM].
For the compound `COc1cccc(Nc2ncc3c(n2)C(C)(C(=O)Nc2nc(C)cs2)CC3)c1` (configuration not stated), the “activity, negative = inhibition” value is inactive: -1.58% [at 57.5 µM].
As for `Cc1ccsc1C(=O)N1CCN(c2cc(-c3ccccc3)[nH]n2)CC1`, the “activity, negative = inhibition” value was inactive: -1.86%.
`O=C(c1ccn[nH]1)N1CCN(Cc2cnn3cccnc23)CC(O)C1` (configuration not stated): the “activity, negative = inhibition” value was inactive: -3.88%.
Turning to `CC1(C(=O)NCc2ccncc2)CCCc2cnc(Nc3ccccc3)nc21` (configuration not stated), the “activity, negative = inhibition” value was inactive: 0.595% [at 57.5 µM].
Consider `CCN(CC)C(=O)[C@@H]1CCC[C@@H](NC2CCOCC2)CN(C)C(=O)C1`, for which the “activity, negative = inhibition” value is inactive: -3.24% [at 57.5 µM].
For the compound `O=C(Cc1c[nH]c2ncc(-c3cccnc3)cc12)Nc1ccccc1`, the “activity, negative = inhibition” value was inactive: -7.98% [at 57.5 µM].
On to `CC[C@H]1CN(C(=O)Nc2cccc(C(F)(F)F)c2)CC[C@H]1CC(=O)NC1CC1`, for which the “activity, negative = inhibition” value was inactive: 9.41% [at 57.5 µM].
In the case of `CN1C(=O)[C@@H]2C[C@@H](O)CN2C2(CN(CC3CCCCC3)C2)C1=O`, the “activity, negative = inhibition” value is inactive: 0.294% [at 57.5 µM].
On to `COc1ccc(CC2(CO)CCNCC2)cc1`, for which the “activity, negative = inhibition” value was inactive: -5.17%.
In the case of `CC1(C)[C@H](Cc2cc(COc3ccccc3)on2)C[C@@H]1NC(=O)Nc1ccccc1`, the “activity, negative = inhibition” value was inactive: 4.01% [at 57.5 µM].
Regarding `O=c1c2nc(Nc3cccc(F)c3)ccc2ncn1Cc1ccccc1`, the “activity, negative = inhibition” value was inactive: -1% [at 57.5 µM].
Regarding `NC(=O)Cc1c[nH]c2ncc(-c3ccc(Oc4ccccc4)cc3)cc12`, the “activity, negative = inhibition” value was inactive: 3.53% [at 57.5 µM].
Take `COc1ccc(C2Cn3nnc(C(=O)N4CCN(C(=O)c5cc(F)ccc5Cl)CC4)c3CO2)cc1` (configuration not stated): the “activity, negative = inhibition” value was inactive: 2.91%.
For `CCNC(=O)N1C[C@@H](F)[C@@H](OCc2nc3ccc(C)cc3[nH]2)C1` the value was inactive: 6.72% [at 57.5 µM].
For `COc1ccccc1-n1cc(-c2ccnc(N3CC(n4cccn4)C3)n2)cn1`, the “activity, negative = inhibition” value is inactive: 1.36%.
Take `COc1ccc(CN2C[C@H]3CN(Cc4ccc5c(c4)OCCO5)CCN3C2=O)cc1`: the “activity, negative = inhibition” value is inactive: 4.28% [at 57.5 µM].
For the compound `O=C(NCCc1ccc(F)cc1)C1CN(c2ccccc2)C(=O)N1` (configuration not stated), the “activity, negative = inhibition” value is inactive: -12.5% [at 57.5 µM].
With `CCCC1c2nccn2CCCN1C(=O)c1ccoc1C` (configuration not stated), the “activity, negative = inhibition” value was inactive: -4.1%.
Take `CC(=O)N[C@@H]1C=C[C@@H](c2c(C)nn(-c3ccc(C)c(Cl)c3)c2C)C1`: the “activity, negative = inhibition” value was inactive: 2.31% [at 57.5 µM].
On to `Cc1c(-c2ccc(F)cc2)[nH]c2ccc(CNC(=O)c3n[nH]c4c3CCCC4)cc12`, for which the “activity, negative = inhibition” value is inactive: -3.45%.
Turning to `CC1=C[C@@H](CNC(=O)c2ccc(F)cc2)[C@H](C(C)C)C[C@H]1Cc1nnc(-c2ccncc2)o1`, the “activity, negative = inhibition” value is inactive: -0.0763%.
Under `CC(=O)N[C@H]1C[C@@H](Cc2cc(CN3CCCCC3)on2)C1(C)C` stands inactive: 1.39% [at 57.5 µM].
`O=C1Cc2c(-c3cccc4ccccc34)n[nH]c2CN1Cc1ccccc1`: the “activity, negative = inhibition” value is inactive: -0.476% [at 57.5 µM].
`O=C1[C@H]2CN(S(=O)(=O)c3ccc(F)cc3)CCN2C(=O)N1CCO`: the “activity, negative = inhibition” value is inactive: -0.29% [at 57.5 µM].
Take `COc1ccccc1-c1[nH]nc2ncc(C(=O)NCCc3ccccn3)nc12`: the “activity, negative = inhibition” value was inactive: -18.2% [at 57.5 µM].
`CC(C)(O)CCc1cccc(C(=O)NCC(O)c2ccccc2Cl)c1` (configuration not stated): the “activity, negative = inhibition” value is inactive: -1.23%.
With `CCn1nc(CC(C)C)cc1C(=O)N1CCN(CCn2cccc2)CC1`, the “activity, negative = inhibition” value was inactive: -28%.
For the compound `CC(=O)c1ccc(NC(=O)N2C[C@@H]3C[C@H](C2)c2ccc(NC(=O)C4CCCCC4)c(=O)n2C3)cc1`, the “activity, negative = inhibition” value is inactive: -1.96%.
Regarding `CS(=O)(=O)N1C[C@H]2CCN(C(=O)c3ncccc3F)C[C@H]21`, the “activity, negative = inhibition” value is inactive: -3.35%.
`O=C(c1cn2ccccc2n1)N1C[C@@H](CO)[C@H](c2ccncc2)C1`: the “activity, negative = inhibition” value is inactive: -5.49%.

Values taken from PubChem BioAssay AID1794844 (National Center for Advancing Translational Sciences (NCATS), 2023).
